According to patent US12617827B2, “Self-assembling peptide” (NATIONAL UNIVERSITY CORPORATION TOKYO MEDICAL AND DENTAL …, priority 2020, dated 2026):
Results are given in words; binding and its absence hold for the method and conditions named. A result given as binding can be weak or reduced; the word gives no strength.

Target: T1, P4 peptide (…), as P4 peptide gel
T1 sequence (peptide, acetyl group at the N-terminus; C-terminus is NH2 amide): RIDARMRADIR
Assay: incorporation into the peptide gel; sandwich ELISA of washes; lower incorporation than VEGF-P4, value only in FIG. 7A

**Q.** How did the binding turn out when “VEGF peptide to which P4 peptide is not fused (ligand)” was run?
**A.** binds
